In the supplement of paper PMC6411743:
± gives the standard deviation of the averaged measurements. Some of the results follow.

Amino acid sequences for entries named in this document (tags omitted). A change or cut given only in a name is not applied to a line headed by its entry.
UniProt P56381: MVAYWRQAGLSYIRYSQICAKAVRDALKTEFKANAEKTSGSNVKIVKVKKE
UniProt P55265: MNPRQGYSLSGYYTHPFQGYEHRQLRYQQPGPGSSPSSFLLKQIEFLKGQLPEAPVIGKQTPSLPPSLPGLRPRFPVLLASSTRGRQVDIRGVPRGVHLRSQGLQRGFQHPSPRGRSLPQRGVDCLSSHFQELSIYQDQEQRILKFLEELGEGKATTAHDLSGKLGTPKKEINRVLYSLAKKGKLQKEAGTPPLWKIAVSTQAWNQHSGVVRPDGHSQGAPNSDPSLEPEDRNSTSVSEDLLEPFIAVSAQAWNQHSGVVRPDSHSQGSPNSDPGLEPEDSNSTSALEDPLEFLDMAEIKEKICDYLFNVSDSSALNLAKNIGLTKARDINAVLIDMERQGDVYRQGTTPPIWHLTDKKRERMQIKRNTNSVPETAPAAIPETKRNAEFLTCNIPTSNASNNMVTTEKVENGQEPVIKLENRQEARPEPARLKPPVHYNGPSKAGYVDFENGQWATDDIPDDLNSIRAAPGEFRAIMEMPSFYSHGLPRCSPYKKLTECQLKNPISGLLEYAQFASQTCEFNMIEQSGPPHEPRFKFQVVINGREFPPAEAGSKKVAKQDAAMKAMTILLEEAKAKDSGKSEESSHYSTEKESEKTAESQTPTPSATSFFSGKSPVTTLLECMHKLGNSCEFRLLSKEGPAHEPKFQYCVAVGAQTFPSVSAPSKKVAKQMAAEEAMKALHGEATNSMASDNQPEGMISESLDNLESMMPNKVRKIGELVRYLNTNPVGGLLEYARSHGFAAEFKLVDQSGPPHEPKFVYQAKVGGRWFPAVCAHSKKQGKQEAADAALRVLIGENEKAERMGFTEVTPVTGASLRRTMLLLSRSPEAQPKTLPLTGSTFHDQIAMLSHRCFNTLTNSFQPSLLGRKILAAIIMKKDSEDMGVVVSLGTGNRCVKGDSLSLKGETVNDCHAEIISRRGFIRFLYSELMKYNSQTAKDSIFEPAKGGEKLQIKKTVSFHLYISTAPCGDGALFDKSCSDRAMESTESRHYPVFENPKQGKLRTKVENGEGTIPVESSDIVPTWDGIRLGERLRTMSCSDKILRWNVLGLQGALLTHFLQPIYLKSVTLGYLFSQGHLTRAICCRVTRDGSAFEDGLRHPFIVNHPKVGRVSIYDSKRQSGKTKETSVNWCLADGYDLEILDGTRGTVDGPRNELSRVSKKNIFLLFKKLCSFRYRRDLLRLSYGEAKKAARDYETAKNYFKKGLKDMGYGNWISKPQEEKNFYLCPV
UniProt P61204: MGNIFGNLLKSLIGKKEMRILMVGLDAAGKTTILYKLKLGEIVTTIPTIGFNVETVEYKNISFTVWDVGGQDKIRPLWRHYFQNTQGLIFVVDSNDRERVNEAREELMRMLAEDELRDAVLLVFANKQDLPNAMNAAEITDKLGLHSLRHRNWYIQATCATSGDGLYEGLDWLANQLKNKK
UniProt P55795: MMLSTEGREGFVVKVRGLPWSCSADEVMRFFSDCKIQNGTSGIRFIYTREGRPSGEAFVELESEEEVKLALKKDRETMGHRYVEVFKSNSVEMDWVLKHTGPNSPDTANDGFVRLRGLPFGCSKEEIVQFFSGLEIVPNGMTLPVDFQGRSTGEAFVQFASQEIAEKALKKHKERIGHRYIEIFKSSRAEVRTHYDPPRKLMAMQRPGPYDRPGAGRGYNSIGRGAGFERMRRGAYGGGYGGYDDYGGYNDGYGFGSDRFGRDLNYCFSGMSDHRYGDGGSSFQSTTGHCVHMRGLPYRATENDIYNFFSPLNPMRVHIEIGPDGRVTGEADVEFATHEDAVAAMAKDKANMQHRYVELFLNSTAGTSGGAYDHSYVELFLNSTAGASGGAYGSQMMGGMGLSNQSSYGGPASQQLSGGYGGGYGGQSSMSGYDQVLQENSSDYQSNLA
UniProt P56192: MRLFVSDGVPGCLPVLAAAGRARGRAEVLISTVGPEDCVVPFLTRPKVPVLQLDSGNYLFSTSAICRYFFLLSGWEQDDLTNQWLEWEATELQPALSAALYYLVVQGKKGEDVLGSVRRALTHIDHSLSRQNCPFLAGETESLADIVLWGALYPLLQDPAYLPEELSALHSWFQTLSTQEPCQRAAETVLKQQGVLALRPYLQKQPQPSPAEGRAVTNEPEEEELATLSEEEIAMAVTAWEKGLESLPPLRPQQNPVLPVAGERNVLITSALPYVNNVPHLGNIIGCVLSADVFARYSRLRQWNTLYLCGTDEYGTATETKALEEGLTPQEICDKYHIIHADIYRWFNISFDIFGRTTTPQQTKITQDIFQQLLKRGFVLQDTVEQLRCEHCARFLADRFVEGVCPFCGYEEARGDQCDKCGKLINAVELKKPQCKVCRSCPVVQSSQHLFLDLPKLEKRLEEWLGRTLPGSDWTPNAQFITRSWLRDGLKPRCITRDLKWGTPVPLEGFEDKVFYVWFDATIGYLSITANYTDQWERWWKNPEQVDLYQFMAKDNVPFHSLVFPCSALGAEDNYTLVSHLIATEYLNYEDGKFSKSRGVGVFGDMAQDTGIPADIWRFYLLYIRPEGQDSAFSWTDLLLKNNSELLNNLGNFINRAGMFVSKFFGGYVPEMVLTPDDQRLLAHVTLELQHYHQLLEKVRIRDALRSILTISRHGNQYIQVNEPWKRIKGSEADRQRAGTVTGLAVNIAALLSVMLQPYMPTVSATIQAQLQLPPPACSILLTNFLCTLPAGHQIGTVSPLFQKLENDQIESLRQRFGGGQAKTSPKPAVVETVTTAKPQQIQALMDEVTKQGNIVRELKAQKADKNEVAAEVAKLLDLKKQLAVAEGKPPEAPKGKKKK
UniProt P53350, whole entry: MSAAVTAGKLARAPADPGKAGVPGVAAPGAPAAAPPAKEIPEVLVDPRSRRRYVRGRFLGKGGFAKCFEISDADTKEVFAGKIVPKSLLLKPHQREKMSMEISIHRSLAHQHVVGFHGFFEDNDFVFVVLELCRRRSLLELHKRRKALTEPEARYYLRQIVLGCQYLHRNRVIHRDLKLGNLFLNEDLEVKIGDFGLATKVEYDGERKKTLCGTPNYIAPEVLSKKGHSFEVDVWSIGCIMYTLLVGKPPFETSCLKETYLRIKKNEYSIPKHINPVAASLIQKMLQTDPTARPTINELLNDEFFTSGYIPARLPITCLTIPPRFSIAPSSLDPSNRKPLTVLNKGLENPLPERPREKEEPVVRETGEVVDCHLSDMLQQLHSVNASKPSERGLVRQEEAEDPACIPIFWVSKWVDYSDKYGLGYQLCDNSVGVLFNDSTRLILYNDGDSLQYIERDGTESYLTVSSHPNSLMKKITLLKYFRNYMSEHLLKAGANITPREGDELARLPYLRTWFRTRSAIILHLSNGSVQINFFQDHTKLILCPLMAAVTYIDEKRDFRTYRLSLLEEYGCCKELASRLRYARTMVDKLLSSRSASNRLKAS
UniProt P60602: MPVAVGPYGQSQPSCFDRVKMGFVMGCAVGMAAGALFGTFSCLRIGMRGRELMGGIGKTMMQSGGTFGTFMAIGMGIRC
UniProt P61604, whole entry: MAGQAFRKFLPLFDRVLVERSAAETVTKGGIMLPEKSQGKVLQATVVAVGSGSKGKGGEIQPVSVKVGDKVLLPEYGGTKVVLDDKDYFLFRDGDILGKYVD
UniProt P61758, whole entry: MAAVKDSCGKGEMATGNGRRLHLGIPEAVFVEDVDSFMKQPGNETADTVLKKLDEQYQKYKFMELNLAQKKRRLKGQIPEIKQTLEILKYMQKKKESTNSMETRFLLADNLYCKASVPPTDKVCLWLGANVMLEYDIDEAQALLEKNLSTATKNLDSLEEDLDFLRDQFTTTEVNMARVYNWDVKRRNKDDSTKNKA
UniProt P54198, whole entry: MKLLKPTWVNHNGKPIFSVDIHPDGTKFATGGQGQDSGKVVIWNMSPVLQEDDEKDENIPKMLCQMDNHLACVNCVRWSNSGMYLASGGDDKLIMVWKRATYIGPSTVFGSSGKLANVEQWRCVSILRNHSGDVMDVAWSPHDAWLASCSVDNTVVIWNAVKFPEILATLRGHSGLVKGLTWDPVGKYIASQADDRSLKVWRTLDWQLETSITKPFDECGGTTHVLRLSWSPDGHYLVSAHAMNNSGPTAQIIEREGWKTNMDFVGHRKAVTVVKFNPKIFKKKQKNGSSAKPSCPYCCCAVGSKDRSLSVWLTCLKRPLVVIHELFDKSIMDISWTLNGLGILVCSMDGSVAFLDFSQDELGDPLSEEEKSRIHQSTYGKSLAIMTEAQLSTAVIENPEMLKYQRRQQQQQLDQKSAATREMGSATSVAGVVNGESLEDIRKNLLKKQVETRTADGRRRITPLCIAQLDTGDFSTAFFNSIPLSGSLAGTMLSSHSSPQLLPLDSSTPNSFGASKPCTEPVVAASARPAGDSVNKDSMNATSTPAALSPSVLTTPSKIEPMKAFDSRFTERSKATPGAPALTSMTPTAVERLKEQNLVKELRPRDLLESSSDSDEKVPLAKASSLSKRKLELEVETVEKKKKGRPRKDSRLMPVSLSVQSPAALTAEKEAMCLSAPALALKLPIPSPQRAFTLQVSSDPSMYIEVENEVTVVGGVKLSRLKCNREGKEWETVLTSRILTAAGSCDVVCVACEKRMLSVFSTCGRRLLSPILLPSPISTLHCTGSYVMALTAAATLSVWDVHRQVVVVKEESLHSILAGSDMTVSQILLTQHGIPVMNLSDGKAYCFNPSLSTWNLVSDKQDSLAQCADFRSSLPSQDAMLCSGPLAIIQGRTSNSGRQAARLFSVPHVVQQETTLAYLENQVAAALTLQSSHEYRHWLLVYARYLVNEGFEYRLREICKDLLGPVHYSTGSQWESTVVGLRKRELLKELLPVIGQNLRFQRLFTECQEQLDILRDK
UniProt P58546, whole entry: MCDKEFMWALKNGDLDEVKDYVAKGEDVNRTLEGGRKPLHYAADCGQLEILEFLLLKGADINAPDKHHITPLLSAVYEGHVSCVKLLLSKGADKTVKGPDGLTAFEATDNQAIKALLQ
UniProt P61457: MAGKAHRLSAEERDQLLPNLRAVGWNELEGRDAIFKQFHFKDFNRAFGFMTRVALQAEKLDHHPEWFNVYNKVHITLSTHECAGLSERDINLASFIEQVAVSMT
UniProt P56962: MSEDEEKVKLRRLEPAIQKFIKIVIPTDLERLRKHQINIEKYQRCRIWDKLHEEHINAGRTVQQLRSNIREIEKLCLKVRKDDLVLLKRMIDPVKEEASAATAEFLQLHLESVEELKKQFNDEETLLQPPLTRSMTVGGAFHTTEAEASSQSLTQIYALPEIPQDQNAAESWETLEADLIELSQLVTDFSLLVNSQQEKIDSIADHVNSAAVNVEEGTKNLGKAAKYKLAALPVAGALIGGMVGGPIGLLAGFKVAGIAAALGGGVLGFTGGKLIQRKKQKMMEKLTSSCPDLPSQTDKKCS
UniProt P84085: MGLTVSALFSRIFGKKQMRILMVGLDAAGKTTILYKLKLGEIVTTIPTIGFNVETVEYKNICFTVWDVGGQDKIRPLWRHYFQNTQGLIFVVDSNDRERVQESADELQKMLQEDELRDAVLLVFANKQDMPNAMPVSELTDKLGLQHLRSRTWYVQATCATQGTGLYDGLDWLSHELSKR
UniProt P78417: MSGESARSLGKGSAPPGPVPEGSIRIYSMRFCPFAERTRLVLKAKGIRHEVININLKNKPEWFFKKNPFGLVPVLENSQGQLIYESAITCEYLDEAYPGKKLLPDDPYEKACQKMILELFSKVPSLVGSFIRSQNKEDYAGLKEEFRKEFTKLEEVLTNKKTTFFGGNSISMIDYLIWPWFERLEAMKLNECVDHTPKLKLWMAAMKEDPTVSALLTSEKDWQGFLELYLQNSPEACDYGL
UniProt P61970, whole entry: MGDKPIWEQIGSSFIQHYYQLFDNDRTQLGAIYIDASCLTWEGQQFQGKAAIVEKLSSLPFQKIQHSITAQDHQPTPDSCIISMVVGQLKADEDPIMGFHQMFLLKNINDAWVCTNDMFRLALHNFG
UniProt P83916, whole entry, looked up: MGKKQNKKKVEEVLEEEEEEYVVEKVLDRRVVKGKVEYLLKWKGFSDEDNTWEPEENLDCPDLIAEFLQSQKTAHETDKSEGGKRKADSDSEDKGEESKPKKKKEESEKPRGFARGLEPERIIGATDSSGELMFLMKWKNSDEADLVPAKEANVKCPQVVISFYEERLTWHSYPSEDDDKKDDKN
UniProt Q00537: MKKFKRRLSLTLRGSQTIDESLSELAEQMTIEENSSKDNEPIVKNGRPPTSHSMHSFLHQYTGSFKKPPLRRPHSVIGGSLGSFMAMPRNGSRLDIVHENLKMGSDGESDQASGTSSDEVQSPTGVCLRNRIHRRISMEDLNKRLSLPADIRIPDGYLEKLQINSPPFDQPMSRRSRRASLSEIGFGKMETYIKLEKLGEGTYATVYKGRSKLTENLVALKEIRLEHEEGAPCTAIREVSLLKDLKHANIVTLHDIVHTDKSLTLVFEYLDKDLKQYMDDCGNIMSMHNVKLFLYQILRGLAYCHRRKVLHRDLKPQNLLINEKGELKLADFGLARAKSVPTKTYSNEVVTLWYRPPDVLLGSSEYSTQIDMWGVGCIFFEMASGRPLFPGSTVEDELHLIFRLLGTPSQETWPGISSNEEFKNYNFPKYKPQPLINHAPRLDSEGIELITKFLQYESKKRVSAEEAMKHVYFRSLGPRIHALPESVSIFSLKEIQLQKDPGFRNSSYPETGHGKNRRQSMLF

Compound: Nc1nc2c(ncn2[C@@H]2O[C@H](COP(=O)(O)OP(=O)(O)OP(=O)(O)O)[C@@H](O)[C@H]2O)c(=O)[nH]1 [guanosine triphosphate]
Test: NP40-soluble protein abundance relative to vehicle (solubility fold change) (ratio); higher = more soluble protein in presence of GTP
Method in brief: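 Data come from three independent experiments in which Dounce-homogenised Jurkat crude lysate was treated at eight concentrations from 0.1 to 10 mM. Treatment ran 10 min at room temperature and then 3 min at 37 °C, after which 0.8% NP40 and benzonase were added for 60 min at 4 °C before ultracentrifugation. The supernatant underwent TMT labelling and LC-MS/MS, and vsn-normalised intensities were expressed as fold change against the detergent-processed vehicle in each replicate.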

Row | Target | NP40-soluble protein abundance (concentration: 0.1mM) | NP40-soluble protein abundance (concentration: 0.5mM) | NP40-soluble protein abundance (concentration: 1mM) | NP40-soluble protein abundance (concentration: 2mM) | NP40-soluble protein abundance (concentration: 4mM) | NP40-soluble protein abundance (concentration: 6mM) | NP40-soluble protein abundance (concentration: 8mM) | NP40-soluble protein abundance (concentration: 10mM)
1 | UniProt P56381 | 0.923 ± 0.072 | 0.92 ± 0.058 | 1.06 ± 0.16 | 1.05 ± 0.11 | 1.07 ± 0.16 | 1.11 ± 0.14 | 1.13 ± 0.15 | 1.21 ± 0.22
2 | UniProt P67870 and related entries | 1.01 ± 0.021 | 0.9932 ± 0.0051 | 0.998 ± 0.034 | 1.01 ± 0.032 | 1.04 ± 0.043 | 1.04 ± 0.037 | 1.06 ± 0.028 | 1.05 ± 0.034
3 | UniProt P55265 and related entries | 1.01 ± 0.061 | 1.06 ± 0.059 | 1.04 ± 0.063 | 1.09 ± 0.082 | 1.13 ± 0.09 | 1.17 ± 0.099 | 1.18 ± 0.085 | 1.13 ± 0.069
4 | ARF3 (UniProt P61204) | 1.03 ± 0.09 | 1.05 ± 0.092 | 0.925 ± 0.039 | 0.98 ± 0.12 | 0.926 ± 0.091 | 0.929 ± 0.074 | 0.857 ± 0.061 | 0.882 ± 0.12
5 | UniProt P84101 and related entries | 1.22 ± 0.17 | 1.1 ± 0.18 | 1.08 ± 0.32 | 0.974 ± 0.31 | 0.978 ± 0.37 | 0.857 ± 0.3 | 0.947 ± 0.4 | 0.898 ± 0.32
6 | HNRNPH2 (UniProt P55795) | 1.01 ± 0.026 | 1.02 ± 0.032 | 0.937 ± 0.028 | 0.966 ± 0.017 | 0.938 ± 0.024 | 0.957 ± 0.02 | 0.954 ± 0.018 | 0.926 ± 0.048
7 | HSD17B4 (UniProt P51659) | 1.02 ± 0.0057 | 1.01 ± 0.026 | 0.9623 ± 0.0073 | 0.947 ± 0.032 | 0.958 ± 0.021 | 0.944 ± 0.028 | 0.93 ± 0.032 | 0.912 ± 0.048
8 | MARS (UniProt P56192) | 1.07 ± 0.059 | 1.09 ± 0.098 | 1.12 ± 0.14 | 1.18 ± 0.2 | 1.24 ± 0.21 | 1.21 ± 0.24 | 1.24 ± 0.22 | 1.16 ± 0.23
9 | PLK1 (UniProt P53350) | 1.05 ± 0.044 | 1.01 ± 0.075 | 0.985 ± 0.048 | 1.01 ± 0.07 | 1.05 ± 0.074 | 0.989 ± 0.047 | 1.07 ± 0.076 | 1.08 ± 0.051
10 | ROMO1 (UniProt P60602) | 0.979 ± 0.035 | 0.931 ± 0.071 | 0.897 ± 0.05 | 0.937 ± 0.085 | 0.882 ± 0.05 | 0.855 ± 0.041 | 0.83 ± 0.096 | 0.866 ± 0.045
11 | UniProt P61604 and related entries | 0.873 ± 0.034 | 0.864 ± 0.074 | 0.921 ± 0.044 | 0.873 ± 0.095 | 0.869 ± 0.081 | 0.88 ± 0.088 | 0.88 ± 0.068 | 0.909 ± 0.058
12 | VBP1 (UniProt P61758) | 0.9064 ± 0.009 | 0.9 ± 0.013 | 0.978 ± 0.064 | 0.935 ± 0.015 | 0.912 ± 0.04 | 0.949 ± 0.027 | 0.994 ± 0.044 | 1.04 ± 0.087
13 | UniProt P62851 | 0.853 ± 0.11 | 0.926 ± 0.095 | 1.12 ± 0.18 | 1.14 ± 0.24 | 1.08 ± 0.38 | 1.05 ± 0.28 | 0.578 ± 0.13 | 1.33 ± 0.44
14 | HIRA (UniProt P54198) | 1.07 ± 0.036 | 1.06 ± 0.011 | 1.02 ± 0.026 | 1.13 ± 0.1 | 1.13 ± 0.1 | 1.13 ± 0.17 | 1.15 ± 0.021 | 1.22 ± 0.021
15 | MTPN (UniProt P58546) | 0.855 ± 0.027 | 0.831 ± 0.045 | 0.927 ± 0.031 | 0.912 ± 0.041 | 0.888 ± 0.026 | 0.888 ± 0.073 | 0.824 ± 0.14 | 0.905 ± 0.045
16 | MRPS25 (UniProt P82663) | 1.1 ± 0.052 | 1.14 ± 0.11 | 1.2 ± 0.15 | 1.28 ± 0.23 | 1.28 ± 0.22 | 1.23 ± 0.23 | 1.18 ± 0.22 | 1.1 ± 0.17
17 | UniProt P60866 and related entries | 1.01 ± 0.073 | 1.03 ± 0.096 | 1.05 ± 0.19 | 0.983 ± 0.2 | 0.879 ± 0.27 | 0.845 ± 0.26 | 0.728 ± 0.21 | 0.812 ± 0.25
18 | ST13 (UniProt P50502) | 0.848 ± 0.04 | 0.785 ± 0.09 | 0.879 ± 0.051 | 0.868 ± 0.081 | 0.869 ± 0.07 | 0.804 ± 0.22 | 0.817 ± 0.14 | 0.966 ± 0.013
19 | UniProt P60983 and related entries | 0.945 ± 0.13 | 0.871 ± 0.062 | 1.05 ± 0.15 | 1.03 ± 0.085 | 1.02 ± 0.091 | 0.986 ± 0.099 | 0.976 ± 0.14 | 0.994 ± 0.087
20 | UniProt P61254 | 1.031 ± 0.0044 | 1.05 ± 0.054 | 1.02 ± 0.068 | 0.855 ± 0.096 | 0.892 ± 0.19 | 0.899 ± 0.14 | 0.783 ± 0.23 | 0.933 ± 0.29
21 | FKBP1A (UniProt P62942) | 0.912 ± 0.023 | 0.912 ± 0.023 | 0.923 ± 0.015 | 0.902 ± 0.028 | 0.91 ± 0.069 | 0.936 ± 0.062 | 0.926 ± 0.063 | 0.923 ± 0.065
22 | PCBD1 (UniProt P61457) | 1.03 ± 0.046 | 1 ± 0.031 | 1.05 ± 0.074 | 1.04 ± 0.059 | 1.01 ± 0.021 | 0.9294 ± 0.009 | 0.968 ± 0.017 | 1.01 ± 0.06
23 | STX17 (UniProt P56962) | 0.962 ± 0.032 | 0.938 ± 0.047 | 0.983 ± 0.042 | 0.979 ± 0.1 | 0.942 ± 0.11 | 0.942 ± 0.06 | 0.95 ± 0.063 | 0.967 ± 0.095
24 | UniProt P84085 | 1.03 ± 0.012 | 1.01 ± 0.018 | 0.962 ± 0.046 | 0.925 ± 0.053 | 0.874 ± 0.06 | 0.922 ± 0.05 | 0.863 ± 0.093 | 0.83 ± 0.12
25 | MRPS5 (UniProt P82675) | 1.09 ± 0.075 | 1.16 ± 0.17 | 1.23 ± 0.24 | 1.32 ± 0.32 | 1.36 ± 0.34 | 1.28 ± 0.31 | 1.23 ± 0.3 | 1.18 ± 0.29
26 | GSTO1 (UniProt P78417) | 0.917 ± 0.02 | 0.936 ± 0.018 | 0.892 ± 0.022 | 0.884 ± 0.037 | 0.846 ± 0.033 | 0.853 ± 0.046 | 0.802 ± 0.078 | 0.817 ± 0.073
27 | UniProt P84022 | 1.0241 ± 0.00028 | 1.04 ± 0.099 | 0.965 ± 0.021 | 1.02 ± 0.022 | 1.03 ± 0.015 | 1.04 ± 0.038 | 1.012 ± 0.0063 | 0.953 ± 0.023
28 | UniProt P61970 | 1.03 ± 0.1 | 0.927 ± 0.091 | 1.04 ± 0.12 | 0.886 ± 0.12 | 0.993 ± 0.2 | 0.895 ± 0.094 | 0.977 ± 0.19 | 0.858 ± 0.14
29 | UniProt P83916 and related entries | 0.896 ± 0.021 | 0.925 ± 0.015 | 1 ± 0.035 | 1.01 ± 0.022 | 0.962 ± 0.04 | 1.01 ± 0.031 | 1.032 ± 0.0036 | 1.09 ± 0.06
30 | UniProt Q00537 and related entries | 1.07 ± 0.066 | 1.08 ± 0.094 | 1.08 ± 0.044 | 1.14 ± 0.087 | 1.12 ± 0.11 | 1.16 ± 0.17 | 1.22 ± 0.17 | 1.17 ± 0.091

Records 21 to 22, quoted:
Row | Target | NP40-soluble protein abundance (concentration: 0.1mM) | NP40-soluble protein abundance (concentration: 0.5mM) | NP40-soluble protein abundance (concentration: 1mM) | NP40-soluble protein abundance (concentration: 2mM) | NP40-soluble protein abundance (concentration: 4mM) | NP40-soluble protein abundance (concentration: 6mM) | NP40-soluble protein abundance (concentration: 8mM) | NP40-soluble protein abundance (concentration: 10mM)
21 | FKBP1A (UniProt P62942) | 0.912 ± 0.023 | 0.912 ± 0.023 | 0.923 ± 0.015 | 0.902 ± 0.028 | 0.91 ± 0.069 | 0.936 ± 0.062 | 0.926 ± 0.063 | 0.923 ± 0.065
22 | PCBD1 (UniProt P61457) | 1.03 ± 0.046 | 1 ± 0.031 | 1.05 ± 0.074 | 1.04 ± 0.059 | 1.01 ± 0.021 | 0.9294 ± 0.009 | 0.968 ± 0.017 | 1.01 ± 0.06
